In paper PMC4980028, “Discovery of a Series of Acridinones as Mechanism-Based Tubulin Assembly Inhibitors with Anticancer Activity” (PLoS ONE, 2016):

Tested on: MDA-MB-231 cells
Assay: Boyden chamber (transwell) migration assay
Assay type: cell-based, human
Conditions: MDA-MB-231, transwell, 6 h; read-out: IC50 Cell migration
Protocol: Transwells containing 0.3 cm^2 inserts with 8.0 μm pore polyethylene terephthalate membranes (Corning Falcon^TM) were used to quantify cell migration. MDA-MB-231 cells were added at a density of 4 x 10^4 cells/insert in serum-free media (300 μL) in the upper chambers. In the lower chambers, 700 μL of medium supplemented with 10% FBS was added. Test compounds were added at 7 different concentrations (10–0.04 μM) in both the upper and lower chambers. The systems were incubated at 37°C for 6 h. Next, the cells inside the insert were removed with a cotton swab and the cells under the membrane were fixed with methanol and stained with toluidine blue for 5 min. Pictures of the stained membrane were taken under a 10X objective (Optiphase), and the cells were quantified using NIS Elements software (NIKON). Two independent experiments were conducted in duplicate.

## COc1cc2c(c(OC)c1OC)-c1ccc(OC)c(=O)cc1[C@@H](NC(C)=O)CC2 [Colchicine, colchicine, reference compound]
  IC50: 320 ± 3 nM
